The source of these data is PMC11652107.

No constants are given. Whether binding was seen depends on the method and setting. Binding seen in cells or lysates may run through a third protein. These calls come from enrichment with a bait or labelling near it, and not all partners need be listed.

The experiment addresses HA-HMGA1 (HMGA1 overexpressed in cells) (human (cloned from TE13 cells)) (UniProt P17096). Kind of experiment: affinity purification with mass spectrometry; whole-cell lysates of HMGA1-overexpressing KYSE30 cells, IP with anti-HMGA1 antibody or control IgG, protein A/G beads, SDS-PAGE, Coomassie staining, LC-MS/MS.

For the substance “poly(ADP‐ribose) polymerase 1 (PARP1), endogenous (from UniProt P09874 1-1014) (enzyme)”, the binding result is reported as “binds”.
